Assay results reported in PubChem BioAssay AID743255 (National Center for Advancing Translational Sciences (NCATS), 2014).
The whole screen tested about 390,000 compounds, of which about 910 (0.23%) were called active. The inconclusive results got no clear call from the source; some entries with a clear call stand among them for comparison. Calls come from the whole dose curve; as a rule, active = well fitted inhibition curve with a large enough effect; inconclusive = small, poorly fitted or top-dose-only effect; inactive = no such curve, though single readings can be large or run the other way. Where the call is inconclusive, the potency comes from a doubtful curve fit.

Amino acid sequences for entries named in this document (tags omitted). A change or cut given only in a name is not applied to a line headed by its entry.
UniProt O94782: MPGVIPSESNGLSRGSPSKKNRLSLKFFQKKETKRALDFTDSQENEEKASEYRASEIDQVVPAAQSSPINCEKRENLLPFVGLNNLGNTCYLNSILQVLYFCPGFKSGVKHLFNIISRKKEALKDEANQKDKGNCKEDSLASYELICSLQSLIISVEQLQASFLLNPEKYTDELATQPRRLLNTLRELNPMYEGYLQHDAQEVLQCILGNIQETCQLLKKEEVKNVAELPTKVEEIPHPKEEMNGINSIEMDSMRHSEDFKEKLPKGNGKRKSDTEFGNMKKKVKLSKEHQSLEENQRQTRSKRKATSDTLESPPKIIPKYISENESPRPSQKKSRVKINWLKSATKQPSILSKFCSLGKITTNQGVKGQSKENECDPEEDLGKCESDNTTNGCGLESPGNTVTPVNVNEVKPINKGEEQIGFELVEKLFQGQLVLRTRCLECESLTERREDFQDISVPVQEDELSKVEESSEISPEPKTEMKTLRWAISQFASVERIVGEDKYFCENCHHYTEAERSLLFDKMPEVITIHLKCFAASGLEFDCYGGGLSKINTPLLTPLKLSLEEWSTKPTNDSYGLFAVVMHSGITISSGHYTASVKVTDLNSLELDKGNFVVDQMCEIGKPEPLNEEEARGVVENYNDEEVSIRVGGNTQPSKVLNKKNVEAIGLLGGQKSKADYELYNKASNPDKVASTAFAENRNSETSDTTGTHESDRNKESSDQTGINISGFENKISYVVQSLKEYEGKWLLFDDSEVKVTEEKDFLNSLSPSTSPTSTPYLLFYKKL

target: Ubiquitin carboxyl-terminal hydrolase 1 (Homo sapiens) (UniProt O94782); assay: Inhibitors of USP1/UAF1: Primary Screen; conditions: recombinant USP1/UAF1, Ub-Rhodamine cleavage fluorescence; series mostly up to 57.1 µM; note: nearly all actives have a fitted effect of over 60% in size
How it was run: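 1 nM enzyme complex + cpd, 15 min RT; start with Ub-Rho 150nM final; kinetic fluorescence ex 480/em 540, 6 reads q60 s. Buffer 50mM HEPES pH 7.8, 0.5mM EDTA, 0.1 mg/ml BSA, 1mM TCEP, 0.01% Tween-20.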
Potency is the fitted concentration of half-maximal effect.

| SMILES | Potency |
| --- | --- |
| CCc1ccccc1NC(=O)c1ccc(F)c(S(=O)(=O)NC2CCCCCC2)c1 | inactive |
| COc1ccc(NC(=O)C2CCCN(C(=O)c3cnn(-c4ccc(F)cc4)c3-n3cccc3)C2)cc1 (stereo unspecified) | inactive |
| CCCCCCCCOC(=O)c1cc([N+](=O)[O-])c(Sc2ncnc3nc[nH]c23)c([N+](=O)[O-])c1 | inconclusive: 44.7 µM [inhibitor, partial curve, poor fit] |
| Cc1cc(OC(C)C(=O)N(Cc2ccco2)Cc2ccccc2F)cc(C)c1Cl (stereo unspecified) | inconclusive: 50.1 µM [inhibitor, partial curve, poor fit] |
| CCCCN(C)CCCNC(=O)c1ccc2nc(N3CCCCC3)sc2c1 | inconclusive: 282 µM [inhibitor, partial curve, poor fit] |
| COc1cccc(-c2sc3ccc(OC)cc3c2C#CCC(C)O)c1 (stereo unspecified) | inconclusive: 17.8 µM [inhibitor, partial curve] |
| C[C@@H]1CN([C@H](C)CO)S(=O)(=O)c2ccc(C#Cc3ccccc3F)cc2O[C@H]1CN(C)C(=O)c1ccc2c(c1)OCO2 | inactive |
| Cc1cc(=O)oc2cc(O)cc(OCc3ccccc3)c12 | inactive |
| Cc1cccc(NC(=O)C2CCCN(S(=O)(=O)c3cccc4nonc34)C2)c1C (stereo unspecified) | inactive |
| O=C(Nc1ccc2c(c1)CCC2)c1ncoc1-c1ccccc1F | inconclusive: 35.5 µM [inhibitor, partial curve] |
| CCOC(=O)N1CCN(S(=O)(=O)N2CCCC(C(=O)NCc3cc(OC)ccc3OC)C2)CC1 (stereo unspecified) | inconclusive: 0.251 µM [inhibitor, full curve, poor fit] |
| Cc1ccc(Cn2c(CNS(=O)(=O)c3c(C)cc(C)cc3C)nc3cccnc32)cc1 | inactive |
| COc1ccccc1NC(=O)c1oc2ccc(C)cc2c1C | inconclusive: 50.1 µM [inhibitor, partial curve] |
| CCCCCn1c(=O)[nH]c2cc(C(=O)N3CCN(c4ccccc4)CC3)ccc2c1=O | inconclusive: 0.224 µM [inhibitor, full curve, poor fit] |
| Cc1ccc(/C=C/c2onc(C)c2S(=O)(=O)N2CCC(C(=O)N3CC(C)Oc4ccccc43)CC2)cc1 (stereo unspecified) | inconclusive: 8.91 µM [inhibitor, partial curve, poor fit] |
| Cc1c(Cl)cccc1-n1ncc(C(=O)N2CCc3ccccc3C2)c1C1CCN(C(=O)OC(C)(C)C)CC1 | inconclusive: 5.01 µM [inhibitor, single point] |
| Cc1cccc(NC(=O)c2ncn3c2C(=O)N(C)CC3)c1 | inactive |
| CCCc1cc(N2CCN(c3ccccn3)CC2)n2nc(C)c(-c3ccccc3)c2n1 | inconclusive: 14.1 µM [inhibitor, partial curve] |
| COc1ccccc1N/C=C/c1onc(C)c1[N+](=O)[O-] | inactive |
| Cc1ccccc1NC(=O)c1c(NC(=O)C(C)Oc2cccc(Cl)c2)sc2c1CCCC2 (stereo unspecified) | inconclusive: 0.447 µM [inhibitor, full curve, poor fit] |
| COc1ccccc1Nc1cc2cc(Br)ccc2c(=O)[nH]1 | active: 4.47 µM |
| COC(=O)C1C(O)C(C)C(O)C(C)(O)/C=C\C=C(/C)C(=O)Nc2c(C)c(OC(C)=O)c3c(c2O)C(=O)C(C)=C2OCOC(=C23)/C(C)=C/C(C)(O)C(O)C(C)C1O (stereo unspecified) | inconclusive: 31.6 µM [inhibitor, partial curve] |

| SMILES | Potency |
| --- | --- |
| CO/N=C/Cc1c([N+](=O)[O-])c(C)nn1C | inconclusive: 35.5 µM [inhibitor, single point] |
| Cc1csc(NC(=O)COCC(=O)O)c1-c1nc2ccccc2s1 | inconclusive: 31.6 µM [inhibitor, partial curve] |
| CCOc1ccc(-c2csc(NNC3=NCCCCC3)n2)cc1 | inconclusive: 31.6 µM [inhibitor, partial curve] |
| CN(Cc1ccco1)C(=O)C(Cc1ccccc1)NS(=O)(=O)c1ccc2c(c1)CCC(=O)N2 (stereo unspecified) | inconclusive: 1.58 µM [inhibitor, full curve, poor fit] |
| COc1ccc(NCc2nc3ccccc3n2C)cc1 | inactive |
| O=C(Nc1cccc(C(F)(F)F)c1)n1cc(-c2ccccn2)c(N2CCOCC2)n1 | inactive |
| CCCCCCSc1ccc(-c2nc3ccc(C)cn3c2NCc2ccccc2)cc1OC | inactive |
| Cc1ccc(C(=O)/C=C/c2ccc3c(c2)OCCO3)c(O)c1 | inconclusive: 56.2 µM [inhibitor, partial curve, poor fit] |
| CCCc1nn2c(=O)cc(COC(=O)c3cccc(NC(=O)CCc4ccccc4)c3)nc2s1 | inactive |
| CC(=O)N1C2=CCCC3CCCCC23c2ccccc21 (stereo unspecified) | inconclusive: 50.1 µM [inhibitor, partial curve, poor fit] |
| COc1ccc(C(C)(C)C)cc1NC(=O)c1ccc2ncsc2c1 | inconclusive: 44.7 µM [inhibitor, partial curve] |
| CCOC(=O)Nc1oc2ccccc2c(=O)c1CN1CCOCC1 | inconclusive: 22.4 µM [inhibitor, partial curve] |
| CCN(CC)C(=O)C(Oc1ccc(S(=O)(=O)N2CCCC2)cc1[N+](=O)[O-])c1ccccc1 (stereo unspecified) | inactive |
| COc1c(O)cc2oc(-c3ccc(O)cc3)cc(=O)c2c1O | inconclusive: 6.31 µM [inhibitor, partial curve] |
| Cc1cc(C)c2nc(NC(=O)c3ccc(S(=O)(=O)N4CCCC4)cc3)sc2c1 | inactive |
| COc1ccc(-c2cc3nc(C)c(CCC(=O)N4CCN(c5ccccc5)CC4)c(C)n3n2)c(OC)c1 | inconclusive: 3.16 µM [inhibitor, full curve, poor fit] |
| CN(C(=O)COC(=O)CNC(=O)c1sc2ccccc2c1Cl)C1CCS(=O)(=O)C1 (stereo unspecified) | inactive |
| CCOC(=O)C1=C(O)c2ccccc2C(=O)/C1=C\c1ccc(C)cc1 | inconclusive: 31.6 µM [inhibitor, partial curve] |
| CSCc1cc(N(C)C)nc(SCc2ccc(Cl)cc2Cl)n1 | inconclusive: 35.5 µM [inhibitor, single point] |
| O=C(Oc1ccc2ccc(O)cc2c1)C1CCCCC1 | inconclusive: 50.1 µM [inhibitor, partial curve, poor fit] |
| N#Cc1c(NCCO)nc(NCc2ccccc2)c2c1CCN(Cc1ccccc1)C2 | inconclusive: 44.7 µM [inhibitor, partial curve] |
| CCC(=O)N1CCc2cc(S(=O)(=O)CCC(=O)NCCc3ccc(S(N)(=O)=O)cc3)ccc21 | inconclusive: 12.6 µM [inhibitor, partial curve, poor fit] |

| SMILES | Potency |
| --- | --- |
| O=[N+]([O-])c1ccc(CN2CCN(Cc3c[nH]c4ccccc34)CC2)cc1 | inactive |
| COc1ccc(NC(=O)C2Cc3ccccc3CN2C(=O)c2ccco2)cc1 (stereo unspecified) | inactive |
| Brc1ccc(-c2nc3c4ccccc4ccn3c2Cc2ccccc2)cc1 | inconclusive: 50.1 µM [inhibitor, partial curve, poor fit] |
| CN1OC[C@@H]2CN(Cc3ccccc3)[C@H](c3cccc(-c4ccccc4)c3)C[C@@H]21 | inconclusive: 89.1 µM [inhibitor, partial curve, poor fit] |
| Cc1coc2c1C(=O)C(=O)c1c-2ccc2c1CCCC2(C)C | inconclusive: 35.5 µM [inhibitor, partial curve] |
| O=C(CSc1nnc(SCc2ccc(Cl)cc2)s1)N/N=C/c1c[nH]c2ccccc12 | inconclusive: 22.4 µM [inhibitor, partial curve, poor fit] |
| Cn1c(/N=C/c2c(O)ccc3ccccc23)nc2ccccc21 | inconclusive: 28.2 µM [inhibitor, partial curve] |
| CCN(CC(=O)NCc1ccc(Cl)cc1)C(=O)c1oc2ccccc2c1C | inconclusive: 0.708 µM [inhibitor, full curve, poor fit] |
| O=C(Nc1cccc(F)c1)c1coc(=O)c(Br)c1 | inconclusive: 1 µM [inhibitor, full curve, poor fit] |
| CCN(CC)C(=O)C1=C(C)Nc2nc3ccccc3n2C1c1ccc(Br)cc1 (stereo unspecified) | inconclusive: 0.398 µM [inhibitor, full curve, poor fit] |
| CC(C)Oc1cccc(NC(=O)C2CCN(S(=O)(=O)Cc3ccccc3)CC2)c1 | inactive |
| CCCCCCN1C=CC=C/C1=C\C=C(C#N)C#N | inconclusive: 39.8 µM [inhibitor, partial curve, poor fit] |
| COc1ccc(N2CCN(C(=O)Cc3coc4ccc(C)cc34)CC2)cc1 | inactive |
| N#C/C(=C\c1ccc(-c2ccccc2C(=O)O)o1)c1nc2ccccc2[nH]1 | inconclusive: 35.5 µM [inhibitor, partial curve] |
| O=C(NCc1cccnc1)c1cnn2ccccc12 | inconclusive: 44.7 µM [inhibitor, partial curve] |
| O=C(Cn1c(=O)n(Cc2ccco2)c(=O)c2ccc(C(=O)NC3CCCC3)cc21)Nc1ccc(F)cc1 | inactive |
| Cc1ccc(Nc2nnc(SCC(=O)NCc3ccco3)s2)cc1 | inactive |
| COc1ccc2cc(C(=O)/C=C/c3cc(OC)c(O)c(OC)c3)ccc2c1 | inconclusive: 8.91 µM [inhibitor, partial curve, poor fit] |
| Cn1c(CNC(=O)c2ccco2)nnc1SCC(=O)c1ccc(Br)cc1 | inconclusive: 44.7 µM [inhibitor, partial curve, poor fit] |
| Cc1ccc(OCC(=O)N/N=C\c2ccc(C)o2)c(C)c1 | inactive |
| O=C(O)c1ccc(Cl)c(S(=O)(=O)Nc2ccc3cn[nH]c3c2)c1 | inactive |
| CCOC(=O)c1c(S(=O)(=O)N2CCC(C(=O)N3CCN(c4cccc(C)c4C)CC3)CC2)c(C)n(C)c1C | inconclusive: 0.0631 µM [inhibitor, full curve] |

5 entries from above, in CSV form.
SMILES,Potency
COc1ccc(NC(=O)C2Cc3ccccc3CN2C(=O)c2ccco2)cc1 (stereo unspecified),inactive
CCN(CC)C(=O)C1=C(C)Nc2nc3ccccc3n2C1c1ccc(Br)cc1 (stereo unspecified),"inconclusive: 0.398 µM [inhibitor, full curve, poor fit]"
Cc1ccc(OCC(=O)N/N=C\c2ccc(C)o2)c(C)c1,inactive
O=C(O)c1ccc(Cl)c(S(=O)(=O)Nc2ccc3cn[nH]c3c2)c1,inactive
CCOC(=O)c1c(S(=O)(=O)N2CCC(C(=O)N3CCN(c4cccc(C)c4C)CC3)CC2)c(C)n(C)c1C,"inconclusive: 0.0631 µM [inhibitor, full curve]"
